Results: patent US12521402B2, “Biomarker and drug combinations for heart failure prediction” (Endothelium Scanning Nanotechnology Limited, priority 2022, dated 2026)

Assay: Saliva proteomics: biomarker quantification by mass spectrometry SWATH in participants at risk of heart failure vs controls
Parameters: species or system human
Conditions: for AtRisk average: 'at risk' of heart failure group mean; for Control average: control group mean
[1] = differential expression (fold) control vs 'at risk' group, saliva
[2] = saliva, mass spectrometry SWATH quantification, 20 samples
[3] = differential expression (fold) control vs 'at risk', printed as larger/smaller average whatever the direction
[4] = saliva, mass spectrometry SWATH quantification
[5] = differential expression (fold) between control and at-risk averages, saliva
[6] = saliva, mass spectrometry SWATH, 20 samples

Substance | Control vs Risk [1] | AtRisk average [2] | Control average [2] | Control vs Risk [3] | AtRisk average [4] | Control average [4] | further results
UFC1 | 2.00 | 50,044 ng/ml | 100,021 ng/ml | – | – | – | –
RAB1B | 2.29 | 714,602 ng/ml | 312,439 ng/ml | – | – | – | –
IGLC7 | – | – | – | 13.72 | 1,339,761 ng/ml | 97,679 ng/ml | –
LYSC | – | – | – | 2.74 | 300,657,309 ng/ml | 823,035,736 ng/ml | –
MUC5B | – | – | – | 3.18 | 324,735,024 ng/ml | 1,033,569,305 ng/ml | –
TIM13 | 2.00 | 190,669 ng/ml | 95,356 ng/ml | – | – | – | –
CALL3 | – | – | – | 4.02 | 4,638,566 ng/ml | 1,153,513 ng/ml | –
TRY1 | 2.43 | 326,267 ng/ml | 792,519 ng/ml | – | – | – | –
CBPE | – | – | – | – | – | – | Control vs Risk [5]: 1.84; AtRisk average [6]: 935,148 ng/ml; Control average [6]: 1,719,295 ng/ml
HEMO | 1.93 | 4,369,070 ng/ml | 2,258,007 ng/ml | – | – | – | –
CAZA2 | – | – | – | – | – | – | Control vs Risk [5]: 1.81; AtRisk average [6]: 277,691 ng/ml; Control average [6]: 502,909 ng/ml
SET | 2.39 | 81,229 ng/ml | 34,044 ng/ml | – | – | – | –
HEM2 | 2.04 | 108,388 ng/ml | 220,656 ng/ml | – | – | – | –
TM11D | 1.95 | 1,224,393 ng/ml | 626,942 ng/ml | – | – | – | –
ASC | 2.27 | 283,431 ng/ml | 125,033 ng/ml | – | – | – | –
LV325 | – | – | – | 3.21 | 93,280 ng/ml | 299,219 ng/ml | –
FCGBP | – | – | – | – | – | – | Control vs Risk [5]: 1.80; AtRisk average [6]: 2,501,142 ng/ml; Control average [6]: 4,509,992 ng/ml
AGRIN | – | – | – | – | – | – | Control vs Risk [5]: 1.57; AtRisk average [6]: 38,787 ng/ml; Control average [6]: 60,836 ng/ml
TSP1 | – | – | – | – | – | – | Control vs Risk [5]: 1.50; AtRisk average [6]: 1,536,784 ng/ml; Control average [6]: 2,297,854 ng/ml
NPC2 | – | – | – | – | – | – | Control vs Risk [5]: 1.66; AtRisk average [6]: 1,004,339 ng/ml; Control average [6]: 605,322 ng/ml
IGLC2 | 1.92 | 18,916,758 ng/ml | 36,285,258 ng/ml | – | – | – | –
FURIN | – | – | – | – | – | – | Control vs Risk [5]: 1.83; AtRisk average [6]: 667,143 ng/ml; Control average [6]: 1,220,714 ng/ml
SIL1 | – | – | – | 2.58 | 67,153 ng/ml | 26,005 ng/ml | –

Substance | Control vs Risk [1] | AtRisk average [2] | Control average [2] | Control vs Risk [3] | AtRisk average [4] | Control average [4] | further results
STAT (DSSEEKFLRRIGRFGYGYGPYQPVPEQPLYPQPYQPQYQQYTF; UniProt P02808 20-62, looked up) | – | – | – | 2.58 | 82,053,253 ng/ml | 31,783,683 ng/ml | –
PSD11 | – | – | – | 2.68 | 96,056 ng/ml | 35,871 ng/ml | –
CHM1B | – | – | – | – | – | – | Control vs Risk [5]: 1.53; AtRisk average [6]: 59,139 ng/ml; Control average [6]: 38,770 ng/ml
GPC5B | – | – | – | 3.98 | 28,524 ng/ml | 113,392 ng/ml | –
ELAF (AQEPVKGPVSTKPGSCPIILIRCAMLNPPNRCLKDTDCPGIKKCCEGSCGMACFVPQ; Elafin; UniProt P19957 61-117, looked up) | – | – | – | 2.92 | 196,903 ng/ml | 67,483 ng/ml | –
LCN1 | – | – | – | 3.47 | 105,334,304 ng/ml | 30,330,854 ng/ml | –
KV311 | 2.29 | 5,711,696 ng/ml | 13,090,866 ng/ml | – | – | – | –
TBA1B | 2.15 | 221,191 ng/ml | 474,945 ng/ml | – | – | – | –
IGJ | – | – | – | 3.50 | 72,868,065 ng/ml | 254,949,858 ng/ml | –
CALU | 2.40 | 36,213 ng/ml | 15,110 ng/ml | – | – | – | –
TEBP | 2.35 | 113,156 ng/ml | 48,241 ng/ml | – | – | – | –
HV434 | – | – | – | 2.66 | 200,507 ng/ml | 532,600 ng/ml | –
HV102 | – | – | – | 3.54 | 874,755 ng/ml | 3,094,358 ng/ml | –
STIP1 | 2.12 | 86,306 ng/ml | 183,292 ng/ml | – | – | – | –
GRB2 | – | – | – | 2.62 | 148,197 ng/ml | 56,510 ng/ml | –
PSMA8 | – | – | – | 3.12 | 66,929 ng/ml | 21,481 ng/ml | –
ATOX1 | 2.13 | 26,304 ng/ml | 12,336 ng/ml | – | – | – | –
CHID1 | – | – | – | 2.73 | 9,956 ng/ml | 27,186 ng/ml | –
HV374 | – | – | – | – | – | – | Control vs Risk [5]: 1.78; AtRisk average [6]: 1,664,922 ng/ml; Control average [6]: 937,879 ng/ml
ANXA5 | – | – | – | 2.57 | 940,764 ng/ml | 366,465 ng/ml | –
SODC | – | – | – | – | – | – | Control vs Risk [5]: 1.68; AtRisk average [6]: 1,051,120 ng/ml; Control average [6]: 626,977 ng/ml
KI21A | – | – | – | 10.00 | 706,251 ng/ml | 7,062,544 ng/ml | –
